Key:
[1] = tested on: E. coli K12 NBRC 3301; assay: Growth and Si content of acetone-treated cells by ICP/MS (Example 4); type: cell-based, Escherichia coli; conditions: lac 1 + compound 5
[2] = tested on: B. subtilis Marburg NBRC13719; assay: as above; type: cell-based, Bacillus subtilis

| SMILES | Si content (ng/mg) in acetone cell [1] | Si content (ng/mg) in acetone cell ([2]; lac 1 + compound 5) | Si content (ng/mg) in acetone cell ([2]; lac 3 + compound 5) |
| --- | --- | --- | --- |
| CCO[Si](C)(C)OCC [emSi, Diethoxydimethylsilane] | 96 ng/mg | 126 ng/mg |  |
| CO[Si](C)(OC)OC [mmSi, Methyltrimethoxysilane] |  |  | 126 ng/mg |

Reference: patent publication US9139810B2, “Method for culturing microorganisms to incorporate a substitue element” (priority 2010, dated 2015)
